# Results from PubChem BioAssay AID504467 (National Center for Advancing Translational Sciences (NCATS), 2011).
# Screen size: about 330,000 compounds; about 7,700 (2.3%) were called active. Inconclusive means that the source gave no clear call. Such entries were picked first, then a sample of the others. Calls follow the shape of the dose curve; as a rule, active = well fitted inhibition curve with a large enough effect; inconclusive = small, poorly fitted or top-dose-only effect, or effect the other way; inactive = flat fitted curve, though single readings scatter. Where the call is inconclusive, the potency comes from a doubtful curve fit.
# Assay: qHTS screen for small molecules that inhibit ELG1-dependent DNA repair in human embryonic kidney (HEK293T) cells expressing luciferase-tagged ELG1; also: nearly all actives have a fitted effect of over 55% in size
# Conditions: HEK293T ELG1-luciferase reporter, luminescence, 16 h, DNA damage induced by 5-fluorouridine; activity change, negative = inhibition: at 46.1 µM (top of the series)
# In short: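 Reporter activity after DNA damage by 5-fluorouridine is monitored. Compound-treated cells incubate 16 hr at 37 °C, then ONE-Glo is added for 30 min before luminescence reading.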
# % is scaled to controls: 0 for no effect and ±100 for the full control effect; potency is read from the fitted curve at half-maximal effect.
Compound,"activity change, negative = inhibition",Potency
O=C(COc1ccccc1Cl)NCC(c1cccs1)N1CCOCC1 (centres undefined),inactive: -11%,
COc1ccc(C(=O)NNC(=O)Nc2ccc(Cl)cc2)cc1,,"inconclusive: 4.11 µM [activator, single point]"
c1ccc(OCCSc2nc3ccccc3o2)cc1,,"inconclusive: 18.4 µM [activator, single point]"
CCOc1ccc(N(CC(=O)N2CCN(c3ccccc3OC)CC2)S(=O)(=O)c2ccc(F)cc2)cc1,,"inconclusive: 29.1 µM [inhibitor, partial curve, poor fit]"
O=C(COc1ccccc1C(=O)NCc1ccncc1)Nc1ccc(Br)cc1,,"inconclusive: 29.1 µM [inhibitor, single point]"
N#Cc1cc(C#N)c(SCC(=O)N2CC(=O)Nc3ccccc32)nc1N,,active: 11.6 µM
CCOc1ccc(NC(=O)N(CCC(C)C)C2CCN(C(C)=O)CC2)cc1,inactive: 1.4%,
COc1ccccc1NS(=O)(=O)c1cc(NC(=O)c2sccc2C)ccc1N1CCOCC1,inactive: -11.5%,
COc1cc(C)cc2oc(=O)c(CC(=O)N3CCN(C(=O)C4COc5ccccc5O4)CC3)c(C)c12 (centres undefined),,"inconclusive: 20.6 µM [inhibitor, single point]"
CN(c1ccccc1)S(=O)(=O)c1cccc(NC(=O)c2ccc3ncsc3c2)c1,,active: 14.6 µM
Cc1ccsc1/C=N/Nc1ccc(F)cc1F,,"inconclusive: 20.6 µM [activator, partial curve]"
CCc1noc(N)c1C(=O)Nc1ccc(Cl)cc1,,"inconclusive: 14.6 µM [activator, single point]"
N#Cc1ccccc1OCC(=O)N1CCN(C(=O)c2ccco2)CC1,,"inconclusive: 1.83 µM [activator, partial curve, poor fit]"
C/C(=N\NC(N)=O)c1ccc(Cl)cc1,,"inconclusive: 0.231 µM [activator, single point]"
CC(C)c1nc(SCC(=O)Nc2cccc(C(F)(F)F)c2)c2c(=O)n(C)c(=O)n(C)c2n1,,"inconclusive: 13 µM [inhibitor, partial curve]"
CC1CN(c2nn3c(=O)c4ccccc4nc3c3ccccc23)CC(C)O1 (centres undefined),,"inconclusive: 11.6 µM [inhibitor, partial curve, poor fit]"
CC(OC(=O)c1cc2c(s1)CCCCC2)C(=O)NC(N)=O (centres undefined),,"inconclusive: 16.4 µM [activator, single point]"
CCCOc1ccc(-c2cc3onc(-c4ccccc4)c3c(=O)n2C)cc1,,"inconclusive: 0.73 µM [activator, full curve]"
COc1cccc(/C=C/C(=O)OCC(=O)c2ccc3c(c2)NC(=O)CO3)c1,,"inconclusive: 8.2 µM [inhibitor, partial curve, poor fit]"
CCN1CCN(c2ccc(NC(=O)c3ccc(F)cc3)cc2Cl)CC1,,"inconclusive: 29.1 µM [activator, single point]"
CC(C)c1nnc(NC(=O)C2CCCO2)s1 (centres undefined),,"inconclusive: 18.3 µM [activator, partial curve]"
O=C(Cc1ccccc1)N/N=C/c1ccc(OCC(=O)Nc2ccccc2)cc1,,"inconclusive: 18.4 µM [inhibitor, partial curve, poor fit]"
O=S(=O)(c1ccccc1)N(CC1CO1)c1ccccc1 (centres undefined),inactive: 7.02%,

Compound,"activity change, negative = inhibition",Potency
Cc1csc(SCC(=O)NC(=O)Cc2ccccc2)n1,,"inconclusive: 23.1 µM [activator, partial curve, poor fit]"
CCc1nc2sccc2c(=O)n1N,inactive: 2.03%,
COC(=O)C(NC(=O)COc1ccccc1)(Nc1nc2c(s1)CCCC2)C(F)(F)F (centres undefined),inactive: -26.6%,
COc1ccc(CN(Cc2cc3cccc(C)c3[nH]c2=O)C(=O)N(C)C)cc1,,"inconclusive: 20.6 µM [inhibitor, partial curve, poor fit]"
COc1cc(S(=O)(=O)N2CCCCC2)ccc1NC(=O)c1ccncc1,,"inconclusive: 23.1 µM [inhibitor, partial curve, poor fit]"
CN1C/C(=C/c2ccsc2)C(=O)/C(=C/c2ccsc2)C1,,"inconclusive: 29.1 µM [inhibitor, single point]"
Cc1ccccc1CN1CCN(Cc2cc(=O)c3ccccc3[nH]2)CC1CCO (centres undefined),,"inconclusive: 25.9 µM [inhibitor, partial curve, poor fit]"
CCOc1ccc(N=Nc2c(N)[nH][nH]c2=O)cc1,,"inconclusive: 18.4 µM [activator, partial curve]"
Cc1nc(-c2ccc(NC(=O)c3ccccc3Br)cc2)cs1,,"inconclusive: 3.26 µM [activator, full curve]"
CN(C)/N=C/C=C1\CCC/C(=C\c2ccc(F)c(F)c2)C1=O,,"inconclusive: 4.61 µM [inhibitor, partial curve, poor fit]"
CCOC(=O)C1=C(COC(=O)/C=C/c2cc(Br)ccc2F)NC(=O)NC1C (centres undefined),,"inconclusive: 0.13 µM [inhibitor, single point]"
CCc1ccc(C(=O)N/N=C(\C)c2ccncc2)s1,,"inconclusive: 23.1 µM [activator, single point]"
COc1cc2c(cc1OC)CN(C(=O)c1ccc([N+](=O)[O-])o1)CC2,,"inconclusive: 25.9 µM [inhibitor, partial curve, poor fit]"
CCOc1ccc(OCCC(=O)OCC(=O)N2CCN(S(=O)(=O)c3ccc(C)cc3)CC2)cc1,,"inconclusive: 18.3 µM [inhibitor, single point]"
COc1ccc(CN2CCN(C(=O)Cn3ncn4cccc4c3=O)CC2)c(OC)c1OC,,"inconclusive: 23.1 µM [inhibitor, partial curve]"
CC(C)(C)c1ccc(C(=O)NNC(=O)Cc2cccc3ccccc23)cc1,inactive: 8.91%,
CCC(CC)c1nnc(NC(=O)/C=C/c2ccco2)s1,,"inconclusive: 29.1 µM [activator, single point]"
COc1ccc2[nH]c(C(=O)O)c(NC(=O)c3cc(OC)c(OC)c(OC)c3)c2c1,inactive: 6.2%,
CC(C)CNC(=S)N1CCC(C(=O)c2ccc3c(c2)OCCO3)CC1,,"inconclusive: 18.3 µM [inhibitor, single point]"
O=C(CN(Cc1ccccc1)C1=NCCS1)c1ccccc1,inactive: -7.36%,
CCn1cc(CN2CCCC(CNS(=O)(=O)c3cccc4cccnc34)C2)cn1 (centres undefined),inactive: -17.5%,
COc1cc2c(c(OC)c1OC)-c1ccc(OC)c(=O)cc1[C@@H](N(C)CC#CCO)CC2,,"inconclusive: 0.164 µM [inhibitor, full curve, poor fit]"
O=C(O)/C=C/C(=O)Nc1ccc(C(=O)c2ccccc2)cc1,,"inconclusive: 23.1 µM [inhibitor, single point]"

# Taken from the listing, twelve compounds:
Compound,"activity change, negative = inhibition",Potency
CN(C)/N=C/C=C1\CCC/C(=C\c2ccc(F)c(F)c2)C1=O,,"inconclusive: 4.61 µM [inhibitor, partial curve, poor fit]"
CCOC(=O)C1=C(COC(=O)/C=C/c2cc(Br)ccc2F)NC(=O)NC1C (centres undefined),,"inconclusive: 0.13 µM [inhibitor, single point]"
CCc1ccc(C(=O)N/N=C(\C)c2ccncc2)s1,,"inconclusive: 23.1 µM [activator, single point]"
COc1cc2c(cc1OC)CN(C(=O)c1ccc([N+](=O)[O-])o1)CC2,,"inconclusive: 25.9 µM [inhibitor, partial curve, poor fit]"
CCOc1ccc(OCCC(=O)OCC(=O)N2CCN(S(=O)(=O)c3ccc(C)cc3)CC2)cc1,,"inconclusive: 18.3 µM [inhibitor, single point]"
COc1ccc(CN2CCN(C(=O)Cn3ncn4cccc4c3=O)CC2)c(OC)c1OC,,"inconclusive: 23.1 µM [inhibitor, partial curve]"
CC(C)(C)c1ccc(C(=O)NNC(=O)Cc2cccc3ccccc23)cc1,inactive: 8.91%,
CCC(CC)c1nnc(NC(=O)/C=C/c2ccco2)s1,,"inconclusive: 29.1 µM [activator, single point]"
COc1ccc2[nH]c(C(=O)O)c(NC(=O)c3cc(OC)c(OC)c(OC)c3)c2c1,inactive: 6.2%,
CC(C)CNC(=S)N1CCC(C(=O)c2ccc3c(c2)OCCO3)CC1,,"inconclusive: 18.3 µM [inhibitor, single point]"
O=C(CN(Cc1ccccc1)C1=NCCS1)c1ccccc1,inactive: -7.36%,
CCn1cc(CN2CCCC(CNS(=O)(=O)c3cccc4cccnc34)C2)cn1 (centres undefined),inactive: -17.5%,

# More records follow:

Compound,"activity change, negative = inhibition",Potency
Cc1ccc2ncnc(Nc3cccc([N+](=O)[O-])c3)c2c1,,"inconclusive: 20.6 µM [inhibitor, single point]"
Oc1ccc2ccccc2c1N=Nc1nccs1,,active: 3.66 µM
COc1ccc(N2CCN(c3nc(Cl)nc(Nc4ccc(F)cc4)n3)CC2)cc1,,"inconclusive: 29.1 µM [inhibitor, single point]"
Cc1ccc(S(=O)(=O)N2CCC(=O)N(C(COCc3cccc(C(F)(F)F)c3)Cc3ccccc3)CC2)cc1 (centres undefined),inactive: -5.87%,
O=C(CN1CCCCC1)N1c2ccccc2Sc2ccc(C(F)(F)F)cc21,inactive: -0.87%,
COc1cccc(C=Nc2ccccc2C#N)c1O,inactive: -0.808%,
O=Cc1cc2cc3c(cc2nc1Cl)OCCO3,,"inconclusive: 23.1 µM [activator, partial curve]"
COc1ccc(NC(=O)Cn2nnc(C(=O)NCCc3ccc(OC)c(OC)c3)c2N)c(OC)c1,inactive: 5.59%,
CCn1nc(NS(=O)(=O)c2ccccc2)c2cc3ccc(C)cc3nc21,inactive: 10.3%,
Cc1ccc2[nH]c3c(c2c1)CCCC3=O,,"inconclusive: 23.1 µM [activator, single point]"
Cc1ccc(NC(=O)N2CCC(=O)N2)cc1,,"inconclusive: 17.8 µM [activator, partial curve, poor fit]"
CN(CC(=O)Nc1cccc2c1CCCC2)S(=O)(=O)c1ccc(Br)cc1,,"inconclusive: 9.2 µM [inhibitor, single point]"
Cc1cccc(-c2cnn(-c3ccccc3)c2N)c1,,"inconclusive: 18.3 µM [activator, partial curve]"
Cc1nc(N)nc(N/N=C/c2c(F)cccc2Cl)n1,,"inconclusive: 18.3 µM [activator, single point]"
N/C(=N\OC(=O)c1cccc(Br)c1)c1ccccc1,,"inconclusive: 20.6 µM [activator, partial curve]"
COc1ccc(C(=O)NCCc2c[nH]c3ccccc23)cc1[N+](=O)[O-],,"inconclusive: 14.1 µM [inhibitor, partial curve, poor fit]"
CCOCCOC(=O)C1=C(C)NC2=C(C(=O)CC(c3cccs3)C2)C1c1ccsc1 (centres undefined),,"inconclusive: 10 µM [inhibitor, partial curve, poor fit]"
CC1CC(C)(C)NC(=S)N1CCCC(=O)NCCc1ccc(Cl)cc1 (centres undefined),inactive: -10.1%,
CCC(C)(C)C1CCC2(CC1)NC(=S)N(c1ccccc1)N2 (centres undefined),,active: 8.2 µM
O=C(CN1C(=O)c2ccccc2C1=O)NN1C(=O)c2ccccc2C1=O,,"inconclusive: 2.59 µM [activator, full curve]"
Cc1cc(C(=O)CSc2nnc(-c3ccco3)o2)c(C)n1C,,"inconclusive: 18.3 µM [activator, single point]"
CC(C)(C)OC(=O)[C@H](Cc1ccccc1)NC(=O)c1nc[nH]c1C(=O)N1CCN(c2ccccc2)CC1,inactive: 0.751%,
COc1ccccc1C(=O)NC(=O)COC(=O)C1(C)CC1(Cl)Cl (centres undefined),inactive: 4.59%,
